The target of the experiment is T1, BMPR2 (human, on breast cancer cells) (human, UniProt Q13873 27-1038).
T1 construct: whole, on cells; The PDX cells are described as human breast tumor cells; also called BMP Receptor 2
T1 sequence (looked up): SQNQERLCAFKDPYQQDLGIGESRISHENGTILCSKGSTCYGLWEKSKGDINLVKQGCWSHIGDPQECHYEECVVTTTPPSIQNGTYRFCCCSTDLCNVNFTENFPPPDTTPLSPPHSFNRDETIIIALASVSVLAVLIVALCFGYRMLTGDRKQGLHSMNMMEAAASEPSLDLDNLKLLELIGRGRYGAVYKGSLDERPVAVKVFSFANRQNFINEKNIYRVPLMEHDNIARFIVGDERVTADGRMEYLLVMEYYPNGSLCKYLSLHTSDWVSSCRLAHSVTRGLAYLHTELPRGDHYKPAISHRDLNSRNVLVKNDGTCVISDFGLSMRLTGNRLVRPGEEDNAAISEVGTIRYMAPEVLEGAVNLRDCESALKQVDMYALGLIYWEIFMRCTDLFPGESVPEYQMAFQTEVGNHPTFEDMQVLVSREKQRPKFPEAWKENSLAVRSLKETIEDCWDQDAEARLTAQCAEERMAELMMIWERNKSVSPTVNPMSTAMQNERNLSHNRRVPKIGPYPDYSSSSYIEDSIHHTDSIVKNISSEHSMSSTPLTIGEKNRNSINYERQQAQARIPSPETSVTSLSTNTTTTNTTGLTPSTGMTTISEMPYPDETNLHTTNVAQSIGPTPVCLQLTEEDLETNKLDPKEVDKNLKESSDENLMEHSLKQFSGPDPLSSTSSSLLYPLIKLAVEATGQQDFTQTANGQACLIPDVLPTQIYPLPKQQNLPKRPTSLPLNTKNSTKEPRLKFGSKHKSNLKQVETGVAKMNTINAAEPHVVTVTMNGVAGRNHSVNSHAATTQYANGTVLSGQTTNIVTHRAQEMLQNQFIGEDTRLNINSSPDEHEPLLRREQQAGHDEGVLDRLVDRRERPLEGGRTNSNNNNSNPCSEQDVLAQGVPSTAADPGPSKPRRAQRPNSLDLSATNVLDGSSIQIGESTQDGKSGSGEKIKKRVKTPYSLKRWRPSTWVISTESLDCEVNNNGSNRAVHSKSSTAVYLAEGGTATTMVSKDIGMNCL
Kind of experiment: Proximity Ligation on sorted breast cancer PDX cells. The source says:
Next, we examined the interaction of LEFTY-BMPR2 and BMP7-BMPR2 in different subpopulations of breast cancer cells. Tumor cells were isolated from 3 established breast cancer PDXs using flow cytometry. These models were characterized to follow the cancer stem cell paradigm. The cells were sorted based on EpCAM and CD49f cell surface markers. Different protein-protein interactions were quantified by Proximity Ligation and the cells were also simultaneously stained for pSMAD2 or pSMAD5. As shown in FIGS. 14A-14D, in the tumorigenic population the LEFTY-BMPR2 interaction is predominant, whereas the BMP7-BMPR2 interaction is predominant in non-tumorigenic population.

Results are given in words; binding and its absence hold for the method and conditions named. In cells and extracts the contact can be indirect. Some binding calls cover weakened binding; strength is not graded here.

B1: LEFTY (human, endogenous in breast cancer cells) (ligand, UniProt O75610 77-366, looked up)
chain: RFSQSFREVAGRFLALEASTHLLVFGMEQRLPPNSELVQAVLRLFQEPVPKAALHRHGRLSPRSARARVTVEWLRVRDDGSNRTSLIDSRLVSVHESGWKAFDVTEAVNFWQQLSRPRQPLLLQVSVQREHLGPLASGAHKLVRFASQGAPAGLGEPQLELHTLDLGDYGAQGDCDPEAPMTEGTRCCRQEMYIDLQGMKWAENWVLEPPGFLAYECVGTCRQPPEALAFKWPFLGPRQCIASETDSLPMIVSIKEGGRTRPQVVSLPNMRVQKCSCASDGALVPRRLQP
In the case of B1, the binding result is “binds”.

For the origin of these results see US20210079400A1 (CZ BIOHUB SF, published 2021).
